Results published in the supplement of paper PMC3334620.
In all, about 33,000 sequences were measured (“E-score (-0.5 to 0.5)”: median about -0.016, highest 2% from about 0.3 on). The list shows a part of the results.

Molecular target: T1, Yer184c (UniProt P39961)
T1 sequence: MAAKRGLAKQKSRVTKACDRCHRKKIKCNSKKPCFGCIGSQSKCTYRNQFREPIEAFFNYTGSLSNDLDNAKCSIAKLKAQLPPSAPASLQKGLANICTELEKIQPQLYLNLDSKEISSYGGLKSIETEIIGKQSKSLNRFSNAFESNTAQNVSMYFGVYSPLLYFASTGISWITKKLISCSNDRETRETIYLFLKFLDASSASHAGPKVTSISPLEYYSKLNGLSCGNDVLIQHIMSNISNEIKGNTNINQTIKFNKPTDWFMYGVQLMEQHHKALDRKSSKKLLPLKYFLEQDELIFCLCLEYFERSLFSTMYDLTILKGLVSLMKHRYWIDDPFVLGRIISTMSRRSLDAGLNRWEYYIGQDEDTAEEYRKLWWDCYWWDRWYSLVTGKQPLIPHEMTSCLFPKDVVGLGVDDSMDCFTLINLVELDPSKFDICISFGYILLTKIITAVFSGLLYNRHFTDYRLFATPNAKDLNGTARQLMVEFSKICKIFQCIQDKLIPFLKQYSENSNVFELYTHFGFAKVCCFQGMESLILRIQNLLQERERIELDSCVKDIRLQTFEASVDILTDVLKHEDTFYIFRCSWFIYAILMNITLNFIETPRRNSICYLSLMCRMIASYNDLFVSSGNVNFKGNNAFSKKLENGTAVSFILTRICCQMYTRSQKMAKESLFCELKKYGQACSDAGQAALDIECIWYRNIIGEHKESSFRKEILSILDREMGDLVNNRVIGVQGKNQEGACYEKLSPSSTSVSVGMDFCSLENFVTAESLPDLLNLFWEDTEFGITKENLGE
Test: PBM E-score (8-mer binding enrichment) (E-score (-0.5 to 0.5)); higher = stronger / more preferred TF binding
Settings: protein concentration: 100 nM; construct: GST-full length
Method: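 Universal 'all 10-mer' protein binding microarrays (Agilent AMADID 015681) probed with GST-tagged S. cerevisiae TFs (full-length or DBD) made by in vitro transcription/translation (PURExpress), about 100-200 nM. Bound TF was detected with fluorescent anti-GST. Each ungapped 8-mer (which stands for itself and its reverse complement) is scored by the PBM enrichment score (E-score), a modified Wilcoxon-Mann-Whitney statistic from -0.5 to +0.5, computed with the Universal PBM Analysis Suite. Scale: above 0.35 generally sequence-specific binding.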

Sequence	PBM E-score
AGCCAGCG	-0.221
CGGAGTGA	0.153
ACTCTCCT	-0.169
AATGTCAG	-0.0883
CAAAGATC	0.154
ACTCTCTA	-0.166
GCCGACGC	0.18
ATGCATCA	0.302
AAACGCCC	-0.106
CACAACTC	0.0365
CAAACAAG	0.0388
GCATCTCA	0.0266
ATACAAGG	0.0668
CTTTATCA	0.142
GCAGCGCA	-0.187
ACTTAACA	-0.00053
AGCTCACG	-0.0984
ACAAAGCA	0.288
CGCTACAC	-0.235
ATACCTGC	-0.23
CCATTCAA	0.136
AGCTAATG	-0.0806

Sequence	PBM E-score
ATCGTAAT	-0.0295
CGAGACAA	-0.0254
CACTATAC	-0.0342
GGAGACAC	-0.0444
AATGTGTA	-0.0922
AGGGACGG	-0.32
CGCCGCGC	0.0984
TATCGCAA	0.00896
CAGAAGCC	-0.0533
GAGTGAAC	0.0123
ATCCTAAT	0.108
ACCCAGCA	-0.121
ATCATCTA	0.00667
CCTTGTTC	-0.0393
CACCCAGA	-0.0698
CATTGGCG	-0.163
ATAGTGAC	-0.0492
GCAGCGAA	0.128
ATTCTAGG	0.0213
AGGAACAG	-0.19
CTACAGAC	-0.202
ATCAAATA	0.0663

Pulled one by one from above (three):
Sequence	PBM E-score
GCAGCGCA	-0.187
AGCTAATG	-0.0806
ACAAAGCA	0.288

Later entries.

Sequence	PBM E-score
ATGTTTTC	0.233
GATGTGCA	-0.157
ATGGTTGC	-0.247
ATGACGTA	-0.0538
CAAGAACG	0.084
CCGCGGAC	0.295
ATTGGCCC	-0.269
AACTTAAA	0.157
ATACTACA	0.153
CACCAGCG	-0.246
AATGAGAG	-0.199
AACACTGT	-0.00284
AACGTTTC	0.153
CAGTAAAG	-0.177
GGACGACA	0.131
CGCAGAAA	0.0456
GGTAGTGA	-0.0712
TCGTCTCA	-0.0379
GCATTCGA	-0.132
CAGCAAAA	-0.0176
CCCCCGCG	-0.109
CTCTTACC	0.2

Sequence	PBM E-score
CACCAACG	-0.113
AAAGCTAC	-0.162
CTCCTCTA	-0.197
GACGGAAA	0.213
CTTGCCCA	-0.0923
AGGAAACC	0.116
AGTCAGTG	-0.206
ACACGGGG	-0.0862
AAATTTCG	0.146
AGCAGCCT	-0.307
CCGTAAAA	0.243
GGGTAAAA	0.143
GAAGTACC	0.0817
GTCTCGCA	-0.0807
GGCCCCCC	-0.289
GAAATAGA	0.249
CAGTCGTA	0.0279
ACATAGGC	-0.133
ATAGCCAC	-0.0617
CCGATGTA	-0.0382
